No constants are given. Whether binding was seen depends on the method and setting. Binding can be weak; no strength is given.
Key:
[1] = target: T1, monomeric C-reactive protein (mCRP) (human) (UniProt P02741); experiment: cell adhesion assay; mCRP or pCRP coated on wells, blocked with BSA; CHO cells expressing integrins (10^5 cells/well) for 1 h at 37°C in Tyrode-HEPES buffer with 1 mM MgCl2; bound cells quantified by endogenous phosphatase activity; in some panels with antagonists (mAb 7E3, AIIB2 or SG73 10 μg/ml, cyclic RGDfV 10 μM, BIO1211 1 μM); only the target purified
T1 sequence: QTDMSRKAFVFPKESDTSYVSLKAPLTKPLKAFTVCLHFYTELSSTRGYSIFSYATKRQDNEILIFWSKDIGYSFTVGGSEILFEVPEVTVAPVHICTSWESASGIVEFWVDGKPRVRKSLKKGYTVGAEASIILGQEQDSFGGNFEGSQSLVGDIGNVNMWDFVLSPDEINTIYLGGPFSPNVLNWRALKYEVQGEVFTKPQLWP

[2] = target: T1, monomeric C-reactive protein (mCRP) (human); experiment: ELISA; mCRP or pCRP coated on wells, blocked with BSA; soluble αvβ3 in Tyrode-HEPES buffer with 1 mM MgCl2 for 2 h (legend: 37°C; methods: room temperature); bound integrin detected with HRP-conjugated anti-His tag IgG; both purified
[3] = target: T1, monomeric C-reactive protein (mCRP) (human); experiment: cell adhesion assay; mCRP coated at 50 μg/ml; β3-CHO cells for 1 h at 37°C in Tyrode-HEPES buffer with 2 mM cations (Mn2+, Mg2+, Ca2+) or EDTA; only the target purified

| Substance | binding [1] | binding [2] | binding [3] |
| --- | --- | --- | --- |
| integrin αvβ1-3-1 on β1-3-1-CHO cells (β1-3-1 mutant) (receptor) | binds | – | – |
| recombinant soluble integrin αvβ3 (complex) | – | binds | – |
| integrin αvβ3 on β3-CHO cells (hamster αv/human β3 chimera) (receptor) | binds | – | binds |
